Measured values reported in patent US10821126B2, “Agent for treating retinopathy” (CARNA HEALTH SUPPORT LTD., priority 2016, dated 2020).

Test system: spontaneous type 2 diabetes model db/db mouse
Assay: Effects on body weight, feed intake, urine volume and blood sugar in db/db mouse
Type: in vivo
Details: any of the dosage amounts 3, 1, 0.1, 0.01, 0.001 mg/kg/day, oral, 2 weeks
Method: The above-mentioned low dosage (0.01 mg/kg/day as canagliflozin) not showing an antihyperglycemic action was confirmed by the following method.
[…] Effects on body weight, feed intake, urine volume and blood sugar were confirmed.
FIGS. 6 and 7 show the results of fructosamine level which is an index for fasting blood sugar and average blood sugar levels when administering 3 mg/kg/day and 0.01 mg/kg/day of canagliflozin hydrate.

Cc1ccc([C@@H]2O[C@H](CO)[C@@H](O)[C@H](O)[C@H]2O)cc1Cc1ccc(-c2ccc(F)cc2)s1 [canagliflozin hydrate]
no significant change: body weight | feed intake | urine volume
